The target in this assay is FLAG-tagged ERG variant lacking the CTAD region (human). Briefly: co-IP; RNase A-treated lysates of HEK293 cells transfected with Myc-RBFOX2 and FLAG-tagged proteins; anti-FLAG immunoprecipitation, anti-Myc and anti-FLAG Western blot. (In general: In western blotting, separated proteins are transferred to a membrane and probed.)

These results are taken from publication PMC8136815.

These are yes or no findings as the source states them, for the method shown. In cells and extracts the contact can be indirect. Tags and fused reporters may be left off the sequences shown.

B1: Myc-tagged RBFOX2 (protein, UniProt O43251 1-390)
chain: MQNEPLTPGYHGFPARDSQGNQEPTTTPDAMVQPFTTIPFPPPPQNGIPTEYGVPHTQDYAGQTGEHNLTLYGSTQAHGEQSSNSPSTQNGSLTTEGGAQTDGQQSQTQSSENSESKSTPKRLHVSNIPFRFRDPDLRQMFGQFGKILDVEIIFNERGSKGFGFVTFENSADADRAREKLHGTVVEGRKIEVNNATARVMTNKKMVTPYANGWKLSPVVGAVYGPELYAASSFQADVSLGNDAAVPLSGRGGINTYIPLISLPLVPGFPYPTAATTAAAFRGAHLRGRGRTVYGAVRAVPPTAIPAYPGVVYQDGFYGADLYGGYAAYRYAQPATATAATAAAAAAAAYSDGYGRVYTADPYHALAPAASYGVGAVASLYRGGYSRFAPY
B1: the binding result is “no binding”.
